Assay results from PubChem BioAssay AID493014 (National Center for Advancing Translational Sciences (NCATS), 2011).
Hit rate of the full screen: of about 340,000 compounds, about 170 (0.05%) were called active. This list was built around the results that the source calls inconclusive (neither active nor inactive); the mix of calls is not that of the screen. Calls come from the whole dose curve; as a rule, active = well fitted inhibition curve with a large enough effect in the signal ratio, with a control signal flat (not every such curve was filed as active); inconclusive = small, poorly fitted or top-dose-only effect, or effect the other way, or a change in a side signal; inactive = flat fitted curve, though single readings scatter; the % refers to the signal ratio. Where the call is inconclusive, the potency comes from a doubtful curve fit.

Assay: qHTS Assay to Find Inhibitors of Chronic Active B-Cell Receptor Signaling;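 for activity change, negative = inhibition: plate controls were basal doxycycline-induced cells for no effect and cells given 10 µM MG132 for full effect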
Conditions: ABC-DLBCL IkBa-CBG/CBR reporter, luminescence ratio (green luciferase fused to IkBa over red control in TMD8 lymphoma cells), 4 h; activity change, negative = inhibition: at 46.1 µM (top of the series) unless noted
How it was run: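 Concentration-response series (up to 46 uM) were applied to TMD8 dual-reporter cells for 4 h at 37C with doxycycline. Green/red ratio, after filter-overlap correction, defined %Activity; red signal alone was normalised to basal cells and zero luminescence.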
Potency is the fitted concentration of half-maximal effect.

SMILES | activity change, negative = inhibition | Potency
O=C(c1ccc2nc(-c3ccco3)c(-c3ccco3)nc2c1)N1CCN(c2ccccc2)CC1 | inconclusive: 7.32% | –
O=S(=O)(Nc1cccc(-c2ccc3nncn3n2)c1)c1ccccc1F | – | inconclusive: 5.17 µM [falling, partial curve]
O=C(Nc1ccccc1C(F)(F)F)c1cc(-c2cccc(O)c2)on1 | – | inconclusive: 12.6 µM [falling, partial curve]
CCc1[nH]nc(C(=O)NC2CCCc3c2cnn3-c2cc(C)cc(C)c2)c1C (centres undefined) | inconclusive: -15.2% | –
O=C1/C(=C/c2ccccc2Cl)SC(=S)N1CCCC(=O)N(CCO)c1ccccc1 | – | inconclusive: 11.2 µM [falling, partial curve]
Cc1c(C=O)c2ccccn2c1C(=O)c1ccccc1 | inconclusive: 2.63% | –
CCOC(=O)C1C(c2ccc(O)c(O)c2)NC(=S)NC1(O)C(F)(F)F (centres undefined) | inconclusive: 12.7% | –
COCCSc1nc2c(c(=O)[nH]c(=O)n2C)n1CCCc1ccccc1 | inactive: -3.21% | –
O=S(=O)(c1ccc(SCCOc2ccccc2Cl)nc1)N1CCCC1 | inactive: 10.1% | –
Fc1ccc2cnc(-c3ccccc3)c(-c3cc(C(F)(F)F)cc(C(F)(F)F)c3)c2c1 | inactive: 1.51% | –
CCCc1cc(=O)oc2c(C)c(OCC(=O)NC3CC(C)(C)NC(C)(C)C3)ccc12 | inconclusive: -5.47% | –
CCOc1ccc(N(CC(=O)NCCOc2ccccc2OC)S(=O)(=O)c2ccccc2)cc1 | inconclusive: -0.247% | –
COc1cc(NC(=O)CCS(=O)(=O)c2ccc3c(c2)n(C)c(=O)c(=O)n3C)cc(OC)c1 | inactive: 6.75% | –
CCCn1c(N)c(C(=O)CSc2nncs2)c(=O)[nH]c1=O | inconclusive: -5.73% | –
Cc1ccc2nc(CSc3nnc(Nc4ccccc4C)s3)cc(=O)n2c1 | – | inconclusive: 23.1 µM [falling, single point]
COc1cc(N=c2ssnc2Cl)cc(OC)c1 | inconclusive: -1.45% | –
CC(=O)Nc1nc2ccccc2n1CCN(C)C | inactive: -0.292% | –
CCOC(=O)c1ccc(NC(=O)CCC(=O)OC)cc1 | – | inconclusive: 20.6 µM [rising, single point]
Nc1nc(-c2cccs2)c(CC(=O)O)s1 | inconclusive: 13.7% | –
O=C(c1nnc(-c2ccccc2)o1)C1CC1 | inconclusive: 2.71% | –
CC1CC(C)CN(CCCNC(=O)CN2C(=O)COc3ccc(S(=O)(=O)N4CCOCC4)cc32)C1 (centres undefined) | inactive: -12.6% | –
Cc1ccccc1NC(=O)CCn1nc(-c2ccccc2)c2ccccc2c1=O | inactive: 21.4% | –
Clc1cc(Br)ccc1OCCN1CCOCC1 | inconclusive: 3.07% | –
CC(=O)c1ccccc1NC(=O)CSc1n[nH]c(=O)n1C1CC1 | inconclusive: -15.6% | –

One compound at a time (already shown):
CC1CC(C)CN(CCCNC(=O)CN2C(=O)COc3ccc(S(=O)(=O)N4CCOCC4)cc32)C1 (centres undefined) as listed: activity change, negative = inhibition: inactive: -12.6%
O=S(=O)(Nc1cccc(-c2ccc3nncn3n2)c1)c1ccccc1F as listed: Potency: inconclusive: 5.17 µM [falling, partial curve]
